Measured values taken from article PMC9569420 (Communications Biology, 2022).

System: Akt (pAkt T308) in HaCat cells
Assay: Akt phosphorylation in response to insulin (confocal)
Format: cell-based, human
Settings: insulin 10 μM, permeabilized cells

CN[C@@H]1C[C@H]2O[C@@](C)([C@@H]1OC)n1c3ccccc3c3c4c(c5c6ccccc6n2c5c31)C(=O)NC4 [Staurosporine, reference compound]
lowest dose inhibiting intracellular Akt phosphorylation: 0.1 µM
